Consider 54 sequences from publication PMC7819943, “Rice protein-binding microarrays: a tool to detect cis-acting elements near promoter regions in rice”.

By UniProt entry, the sequences of proteins in these tests, tags left out.
UniProt Q0JBA9, entry or part of it: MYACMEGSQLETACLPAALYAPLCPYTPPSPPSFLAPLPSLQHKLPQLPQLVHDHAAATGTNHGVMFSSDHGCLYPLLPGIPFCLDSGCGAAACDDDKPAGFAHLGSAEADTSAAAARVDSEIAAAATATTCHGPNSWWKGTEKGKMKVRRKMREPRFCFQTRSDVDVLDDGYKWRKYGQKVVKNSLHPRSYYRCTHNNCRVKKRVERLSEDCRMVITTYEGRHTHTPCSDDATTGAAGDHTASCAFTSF

The other results are listed elsewhere or left out.

In this assay the target is OsWRKY34 (Oryza sativa, UniProt Q0JBA9 1-250). The experiment in a line: protein-binding microarray (RPBM); PBS, 2% BSA, 51.3 ng/ul salmon testes DNA, 50 uM zinc acetate, 200 nM TF, 25 C, 1 h; high values mean tight binding. Conditions: protein: recombinant; tags: N-terminal polyhistidine and DsRed monomer fusion (pET32a); label: CyDye5-dUTP incorporated in the synthesized complementary strand; 3' TTTTT single-stranded linker to array surface; dsDNA, one strand shown. The procedure, abridged: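 The binding signal is fluorescence intensity per feature, in arbitrary units, read on an Axon 4000B scanner. Polyhistidine- and DsRed-tagged transcription factors (N-terminal fusions) from E. coli BL21-CodonPlus were purified on Ni–NTA and applied at 200 nM for 1 h at 25 °C to a double-stranded, BSA-blocked custom Agilent array in buffer with 50 µM zinc acetate.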
For the sequence “CTAATGCTTCATGGAATACGCAGCCTACTGATAGTTTTTTCGGAGTCACCTAGTGCAG”, the binding signal was 9860 fluorescence intensity (a.u.).

As for “TTTCGCCTAAACCCTAGCCGTCCACACCCCACCACCACCGCGGAGTCACCTAGTGCAG”, the binding signal was 9410 fluorescence intensity (a.u.).

“GATACCCAGACTGTTTGCAATCCCAAAGCACATCTTAAATCGGAGTCACCTAGTGCAG”: the binding signal is 9220 fluorescence intensity (a.u.).

As to “GGAGCGCGGGAGGCGGGGAGCTTAGTTTGAGCTCGGTCGGCGGAGTCACCTAGTGCAG”, the binding signal is 8840 fluorescence intensity (a.u.).

Take “TGTTACAGTCGATTTTTTTTCAGCCACTTACACAGTAGTTCGGAGTCACCTAGTGCAG”: the binding signal was 10600 fluorescence intensity (a.u.).

As to “CGCGACTTCTTGCTTTTCCGCCCTCGCCACCACATCGACACGGAGTCACCTAGTGCAG”, the binding signal is 11100 fluorescence intensity (a.u.).

For the sequence “TGTGTTTCTACCTGCCTGACAAAGTGACCACCATCATGGTCGGAGTCACCTAGTGCAG”, the binding signal is 8990 fluorescence intensity (a.u.).

Regarding “AGTTTGCTGTTTCGGTCGGATTAATCCATTCCACTTTACTCGGAGTCACCTAGTGCAG”, the binding signal was 11800 fluorescence intensity (a.u.).

Regarding “GGCTAGGATCCGTCGCTAACCCACTATATATCCAAACCTCCGGAGTCACCTAGTGCAG”, the binding signal is 9430 fluorescence intensity (a.u.).

On to “ACCGCCGCCGTTCACCGTTCCGCCCGTCCACCTACCTCGTCGGAGTCACCTAGTGCAG”, for which the binding signal is 8080 fluorescence intensity (a.u.).

On to “GAGAGGGGTTGGGAACATAGGATTGCAAACACAGCCTTAGCGGAGTCACCTAGTGCAG”, for which the binding signal is 9780 fluorescence intensity (a.u.).

As to “AGTCAGTGCTTCATTCAACATACCATTTTACATTTCTTTCCGGAGTCACCTAGTGCAG”, the binding signal is 11300 fluorescence intensity (a.u.).

With “AGATATGATCACCGGTCTTTACCATTACATAGTTTTTGTCCGGAGTCACCTAGTGCAG”, the binding signal is 9560 fluorescence intensity (a.u.).

In the case of “GCCAAATTGACTTGGTTGGGGTTCGTGAATGTCGTTGCATCGGAGTCACCTAGTGCAG”, the binding signal was 9030 fluorescence intensity (a.u.).

Regarding “CTGTAACTTTGCAAACGAGACCCTATTTGGATCTTTATTACGGAGTCACCTAGTGCAG”, the binding signal was 10100 fluorescence intensity (a.u.).

Turning to “GATCCTCTGTTTTATCTACGCGTTCCTATCAAATTCCTTTCGGAGTCACCTAGTGCAG”, the binding signal is 16800 fluorescence intensity (a.u.).

In the case of “ATCCCGTAGATCTCGTCATCTACACCACGCTATTCGTATCCGGAGTCACCTAGTGCAG”, the binding signal was 11600 fluorescence intensity (a.u.).

Take “TTATTTACTCCAGGCGGTTTTTTTTCCTTCTTATTCTGTTCGGAGTCACCTAGTGCAG”: the binding signal was 10900 fluorescence intensity (a.u.).

On to “ACGTTGCACATCTTTGGCGTGTCTTGCCATCTCTTCCAGTCGGAGTCACCTAGTGCAG”, for which the binding signal is 9130 fluorescence intensity (a.u.).

In the case of “TGAAACTCTACACAAGAGCTCTTCGCATCATTTTCTTTTTCGGAGTCACCTAGTGCAG”, the binding signal is 9320 fluorescence intensity (a.u.).

With “GGTCAACATTTTTCGTAGTGGGGATTAGGGATGTCATACACGGAGTCACCTAGTGCAG”, the binding signal was 10600 fluorescence intensity (a.u.).

“GGGGTGCATAATCTGGAAGGCCGATTTGGTAAAACAATGGCGGAGTCACCTAGTGCAG”: the binding signal was 8620 fluorescence intensity (a.u.).

As to “AAGTCATTTGTTTGTTACGTTATTCTTGCATCTGTTGATCCGGAGTCACCTAGTGCAG”, the binding signal is 8950 fluorescence intensity (a.u.).

Take “TTTTTTTGTATGTACATCATCATTGCTAAAATCTTTAATACGGAGTCACCTAGTGCAG”: the binding signal was 8260 fluorescence intensity (a.u.).

Regarding “GGTATACTTGCATACATGCGTTCTTTGTTGTTGCTGACTACGGAGTCACCTAGTGCAG”, the binding signal is 9560 fluorescence intensity (a.u.).

“CCTCCGCCACCGCCGCCCGGCCGCCTCCCCTCCCGGATCCCGGAGTCACCTAGTGCAG”: the binding signal was 8320 fluorescence intensity (a.u.).

As to “ACCCTTAACCTTATCTTATCTTATTCAGCATGCACATGGTCGGAGTCACCTAGTGCAG”, the binding signal is 8460 fluorescence intensity (a.u.).

Regarding “TCGCTCTTCGCCCGCCGCCGCCATTGTCCCCGCCGTCCCCCGGAGTCACCTAGTGCAG”, the binding signal was 8830 fluorescence intensity (a.u.).

Regarding “ACTGCATAAAAACGCCCCACCTCCGCCGAATCGCCGATCCCGGAGTCACCTAGTGCAG”, the binding signal is 8130 fluorescence intensity (a.u.).

For “ATCTCCACCGTCCGTCTCCATCCTACACCACCCCGTTCTCCGGAGTCACCTAGTGCAG”, the binding signal was 9670 fluorescence intensity (a.u.).

In the case of “TTGGTTGCATGTTTTTTCACGTAAAATCTTAATTTTTGCACGGAGTCACCTAGTGCAG”, the binding signal was 8150 fluorescence intensity (a.u.).

Consider “CTTATCCGATTATACCGTTATGTTCGTTGCAATTAAATCTCGGAGTCACCTAGTGCAG”, for which the binding signal was 12200 fluorescence intensity (a.u.).

As for “GTGAGCTGCCCGGCTCTCGCCGTTCTTGACCTCTCCGTCACGGAGTCACCTAGTGCAG”, the binding signal was 8660 fluorescence intensity (a.u.).

With “ACGCACCAAAACACACGATCCTCTCGGATAAATCACAGCCCGGAGTCACCTAGTGCAG”, the binding signal was 27500 fluorescence intensity (a.u.).

“ATCTACGAGAGATTTGTTTGGTGAATGGTGATTTCTTCCTCGGAGTCACCTAGTGCAG”: the binding signal was 9300 fluorescence intensity (a.u.).

As for “TTTACGATTTCAAGATTGCCTTCCGTTTCGAGTTCTGCCGCGGAGTCACCTAGTGCAG”, the binding signal was 8130 fluorescence intensity (a.u.).

Take “TACTGATCTAGTCATCAATCCATGCATCCATCCATCATTACGGAGTCACCTAGTGCAG”: the binding signal was 9430 fluorescence intensity (a.u.).

Take “TTTTGTACTGCTCATGTCTAAGTTTTATTTTAATTTTTATCGGAGTCACCTAGTGCAG”: the binding signal is 9860 fluorescence intensity (a.u.).

As for “AGGCGAGAGCTCTTCTCCGTTTCCTCCGTTTTCTCCGTTCCGGAGTCACCTAGTGCAG”, the binding signal is 8960 fluorescence intensity (a.u.).

As to “TTTAGATGTCATATTGTTTCACCTATAACCGATTATAAACCGGAGTCACCTAGTGCAG”, the binding signal is 8700 fluorescence intensity (a.u.).

“GGATTGGCGTCGTGTTCGTGTAGCTCCTCTTCTCCTCATTCGGAGTCACCTAGTGCAG”: the binding signal was 10700 fluorescence intensity (a.u.).

On to “TCCATCCCGGGTTCAAATTCGAATCACCCATCCCACCAAACGGAGTCACCTAGTGCAG”, for which the binding signal was 8140 fluorescence intensity (a.u.).

Consider “GTGTACGCGCATCTGCTTTACTAATGTTTTTTTTTAAAAACGGAGTCACCTAGTGCAG”, for which the binding signal was 8540 fluorescence intensity (a.u.).

Turning to “TTGGGTCAGTAATTTTATTTCACCATTAGTCAAACTGATACGGAGTCACCTAGTGCAG”, the binding signal is 9120 fluorescence intensity (a.u.).

Take “TGTCTTTTTTTTTTTGTGTGTGTTTTTTGGCATTGATTTTCGGAGTCACCTAGTGCAG”: the binding signal was 10100 fluorescence intensity (a.u.).

Consider “CCTGCTTCCTCTCTCTCATCCACCCTACGACTTTGACCGCCGGAGTCACCTAGTGCAG”, for which the binding signal is 9800 fluorescence intensity (a.u.).

With “ACTTCCTGGGTGCCCCGTAGCGTTTTTACCCTATACTCGCCGGAGTCACCTAGTGCAG”, the binding signal is 10200 fluorescence intensity (a.u.).

Regarding “GGTTGGCACGTTTACATCATATTTATACAGCATGTAAAATCGGAGTCACCTAGTGCAG”, the binding signal was 8060 fluorescence intensity (a.u.).

With “GATGGATATGTTGTGTGTGAAGCTCTGGTTGGCCATTTGACGGAGTCACCTAGTGCAG”, the binding signal was 12000 fluorescence intensity (a.u.).

For “TAGTGGTGGTCTTGATTCCTGACATAGCAGACGCATCTGACGGAGTCACCTAGTGCAG”, the binding signal was 10500 fluorescence intensity (a.u.).

With “AAAACTAACCGTCTCTCTTCCCGATCGAACCCTTTCTTACCGGAGTCACCTAGTGCAG”, the binding signal was 8540 fluorescence intensity (a.u.).

For the sequence “CTGTTGCCTACTGCTCTTCTCTCTCCTATTTTAACTTTTTCGGAGTCACCTAGTGCAG”, the binding signal is 9310 fluorescence intensity (a.u.).

Take “TACAGACTCTTCATTCATTTGTGGATATGATACTCGAGGCCGGAGTCACCTAGTGCAG”: the binding signal is 8400 fluorescence intensity (a.u.).

For “GATTATTCGTATTGGTTTATTGATCATTTTTAGTCTTTCTCGGAGTCACCTAGTGCAG”, the binding signal is 10400 fluorescence intensity (a.u.).
